Measured values taken from paper PMC11379886, “Insights into phosphoethanolamine cellulose synthesis and secretion across the Gram-negative cell envelope” (Nature Communications, 2024).
These are yes or no findings as the source states them, for the method shown. Binding seen in cells or lysates may run through a third protein. A result given as binding can be weak or reduced; the word gives no strength. Where a sequence is shown, tags or fusion partners need not be part of it.

The chains behind the UniProt entries cited, without tags or fusion partners. Where a name states a change or a piece, a line headed by the entry shows the natural chain unless it says otherwise.
UniProt P37653: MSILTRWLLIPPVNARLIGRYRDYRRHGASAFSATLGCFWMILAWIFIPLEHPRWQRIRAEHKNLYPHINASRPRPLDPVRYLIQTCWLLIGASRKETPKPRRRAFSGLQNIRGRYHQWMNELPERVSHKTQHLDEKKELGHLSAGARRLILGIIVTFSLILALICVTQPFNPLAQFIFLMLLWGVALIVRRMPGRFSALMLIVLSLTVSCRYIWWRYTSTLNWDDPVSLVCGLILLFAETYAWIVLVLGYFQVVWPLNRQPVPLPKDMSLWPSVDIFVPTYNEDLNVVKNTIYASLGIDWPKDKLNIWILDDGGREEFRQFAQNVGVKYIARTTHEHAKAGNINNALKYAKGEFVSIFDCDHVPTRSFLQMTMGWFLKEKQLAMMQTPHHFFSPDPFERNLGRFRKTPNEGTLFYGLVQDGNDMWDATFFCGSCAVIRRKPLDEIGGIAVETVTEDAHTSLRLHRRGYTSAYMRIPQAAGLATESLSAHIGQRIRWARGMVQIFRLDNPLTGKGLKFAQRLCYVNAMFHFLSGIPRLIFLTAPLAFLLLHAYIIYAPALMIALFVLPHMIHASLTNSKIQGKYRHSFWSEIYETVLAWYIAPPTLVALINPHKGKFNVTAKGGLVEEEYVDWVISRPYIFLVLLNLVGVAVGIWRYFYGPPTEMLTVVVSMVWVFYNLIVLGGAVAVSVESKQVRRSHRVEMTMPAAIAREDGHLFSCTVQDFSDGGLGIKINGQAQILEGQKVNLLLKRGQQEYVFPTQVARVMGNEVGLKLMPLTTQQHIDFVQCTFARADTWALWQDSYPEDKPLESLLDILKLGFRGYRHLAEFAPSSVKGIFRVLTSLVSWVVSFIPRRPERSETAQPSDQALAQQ

Molecular target: Escherichia coli cellulose synthase BcsA (Escherichia coli) (UniProt P37653)
Assay: cryo-EM structure; reprocessing of the previously published cryo-EM data (EMD-23267) of the co-expressed, co-purified Ec inner membrane-associated Bcs complex, focused on BcsA-BcsG; ~5.7 Å; AlphaFold2 model docked as rigid bodies; both purified

binding: binds
B1: Escherichia coli pEtN transferase BcsG, FLAG-tagged (enzyme, UniProt P37659 1-559, looked up)
chain: MTQFTQNTAMPSSLWQYWRGLSGWNFYFLVKFGLLWAGYLNFHPLLNLVFAAFLLMPLPRYSLHRLRHWIALPIGFALFWHDTWLPGPESIMSQGSQVAGFSTDYLIDLVTRFINWQMIGAIFVLLVAWLFLSQWIRITVFVVAILLWLNVLTLAGPSFSLWPAGQPTTTVTTTGGNAAATVAATGGAPVVGDMPAQTAPPTTANLNAWLNNFYNAEAKRKSTFPSSLPADAQPFELLVINICSLSWSDIEAAGLMSHPLWSHFDIEFKNFNSATSYSGPAAIRLLRASCGQTSHTNLYQPANNDCYLFDNLSKLGFTQHLMMGHNGQFGGFLKEVRENGGMQSELMDQTNLPVILLGFDGSPVYDDTAVLNRWLDVTEKDKNSRSATFYNTLPLHDGNHYPGVSKTADYKARAQKFFDELDAFFTELEKSGRKVMVVVVPEHGGALKGDRMQVSGLRDIPSPSITDVPVGVKFFGMKAPHQGAPIVIEQPSSFLAISDLVVRVLDGKIFTEDNVDWKKLTSGLPQTAPVSENSNAVVIQYQDKPYVRLNGGDWVPYPQ
notes: present as the full-length enzyme in the analysed sample; End of the FLAG tag read from the plasmid's name (G-FLAG); also called Ec BcsG; source: E. coli C43 (DE3), co-expressed with the other Bcs components or with the BcsA chimera, Rs BcsB and BcsF; co-purified; not shown: FLAG, C-terminal, kept
